PubChem BioAssay AID504784, Drosophila RNAi Screening Center – 2011

Purpose: 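Fly genes whose silencing alters how much lipid cells keep in droplets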 (primary screen)
Cell system: Drosophila Kc167 embryonic cells
Reagent: long dsRNA against Drosophila genes, about 250 ng dsRNA per well
Time to read-out: 4 days
Treatment: cells fed 400 µM oleic acid bound to BSA
Detection: 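Cells imaged and segmented; ratio of lipid droplet area to nuclear area, log-transformed, then normalised as a B-score over the screen; higher means more stored lipid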
Reading the numbers: droplet/nuclear area B-score: higher = more stored lipid (overstorage)
In all, the deposit lists about 17,000 reagents; this is an unselected part of those that have a named target and a result. 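Each column is one replicate's B-score; the combined score over replicates was not deposited, so single values may mislead.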 A plus sign joins genes that one reagent is predicted to hit. Not all columns of the deposit are shown.

| predicted target | DRSC id | droplet/nuclear area B-score, replicate 1 | droplet/nuclear area B-score, replicate 2 |
| --- | --- | --- | --- |
| CG13721 | DRSC08330 | -0.0299 | 0.487 |
| CG15201 | DRSC19648 | 0.226 | 0.146 |
| eEF1alpha1 (eukaryotic translation elongation factor 1 alpha 1) | DRSC07421 | 2.61 | 0.693 |
| DopEcR (Dopamine/Ecdysteroid receptor) | DRSC08529 | -1.13 | -1.24 |
| GstD6 (Glutathione S transferase D6) | DRSC16687 | 0.246 | -1.25 |
| Cox10 (Cytochrome c oxidase assembly factor 10) | DRSC02804 | 0.211 | 1.93 |
| CG31778 | DRSC00283 | -0.646 | 0.013 |
| CG13766 | DRSC02271 | 1.42 | 0.803 |
| zuc (zucchini) | DRSC02160 | -0.333 | -0.424 |
| Pngl (PNGase-like) | DRSC04914 | 0.408 | -0.91 |
| Hrb87F (Heterogeneous nuclear ribonucleoprotein at 87F) | DRSC16708 | -1.73 | 15.9 |
| Nepl6 (Neprilysin-like 6) | DRSC03242 | 2.02 | 1.36 |
| mof (males absent on the first) | DRSC18795 | 0.0313 | 0.135 |
| Pkc98E (Protein C kinase 98E) | DRSC16791 | -0.274 | – |
| CG9192 | DRSC08639 | -0.131 | -0.94 |
| CCT7 (Chaperonin containing TCP1 subunit 7) | DRSC16410 | 0.0411 | -0.674 |
| CG4950 | DRSC10463 | -3.03 | 1.72 |
| CG13872 | DRSC06431 | 0.497 | 0.463 |
| cta (concertina) | DRSC03769 | -0.201 | -1.41 |
| CG31832 | DRSC22067 | 0.946 | -1.35 |
| CG42374 + Mettl5 | DRSC11085 | 0.432 | -1.43 |
| CG34266 | DRSC08323 | -0.153 | -3.12 |
| CG14957 | DRSC08416 | -0.475 | -0.332 |
| CG14841 | DRSC14965 | -0.806 | 0.48 |
| CG11035 | DRSC14287 | -2.95 | 3.98 |
| alphaSnap (alpha Soluble NSF attachment protein) | DRSC11285 | 5.24 | 2.13 |
| CG7523 | DRSC16254 | -1.25 | -1.13 |
| Mpp6 (M-phase phosphoprotein 6) | DRSC03169 | -1.3 | -0.208 |
| D (Dichaete) | DRSC11132 | 2.35 | 0.302 |
| SP1029 | DRSC16848 | -1.75 | 1.53 |
| Cyp6a18 (Cytochrome P450 6a18) | DRSC16632 | -1.43 | 0.487 |
| CG15725 | DRSC19691 | -0.328 | 0.821 |
| CG43338 | DRSC22055 | 3.68 | 0.913 |
| MAN1 | DRSC04342 | -0.0577 | -0.595 |
| CG42518 + MED9 | DRSC06917 | -0.495 | 2.53 |
| Irbp (Inverted repeat-binding protein) | DRSC17007 | -0.606 | -0.00449 |
| Irbp (Inverted repeat-binding protein) | DRSC23317 | -1.07 | 0.768 |
| cmet (CENP-meta) | DRSC03511 | -2.06 | 0.000552 |
| CG31664 | DRSC22084 | -0.434 | 0.102 |
| sens (senseless) | DRSC09263 | -0.145 | -1.31 |
| sens (senseless) | DRSC23086 | 2.21 | 0.827 |
| Prx6a (Peroxiredoxin 6a) | DRSC00565 | 3.31 | 0.268 |
| CG30095 | DRSC07175 | 0.0762 | 1.72 |
| CG17192 | DRSC15186 | -0.496 | -0.316 |
| Sptz (Spastizin) | DRSC15758 | -0.038 | -1.84 |
| CG13218 | DRSC06340 | -1.06 | -0.123 |
| CG42335 | DRSC14597 | -1.54 | 0.0391 |
| CG42335 | DRSC15892 | 0.347 | -0.0972 |
| CG3546 | DRSC18308 | -1.6 | -2.17 |
| CG31789 | DRSC01645 | -0.811 | 0.153 |
| CG11696 | DRSC19417 | 0.00506 | 0.204 |
| Reg-2 (Rhythmically expressed gene 2) | DRSC08690 | -0.403 | 0.374 |
| Ype (Yippee) | DRSC20301 | -1.1 | -0.489 |
| CG34430 | DRSC06499 | -1.44 | -0.0506 |
| CG14110 | DRSC10113 | 0.835 | -0.208 |
| lncRNA:sphinx + ATPsynF | DRSC17191 | 2.05 | 0.292 |

6 entries already listed, arranged by “droplet/nuclear area B-score, replicate 2”, low to high.
| predicted target | DRSC id | droplet/nuclear area B-score, replicate 1 | droplet/nuclear area B-score, replicate 2 |
| --- | --- | --- | --- |
| CG34266 | DRSC08323 | -0.153 | -3.12 |
| CG42374 + Mettl5 | DRSC11085 | 0.432 | -1.43 |
| cta (concertina) | DRSC03769 | -0.201 | -1.41 |
| CG31832 | DRSC22067 | 0.946 | -1.35 |
| CG14957 | DRSC08416 | -0.475 | -0.332 |
| CG14841 | DRSC14965 | -0.806 | 0.48 |
